# Reference: patent US10004762B2, “Dialysis formulation” (Gambro Lundia AB, priority 2013, dated 2018)
# Details: all HD patients
structure (smiles),measurement,value
"Nc1nc2c([nH]c(=O)n2[C@H]2C[C@H](O)[C@@H](CO)O2)c(=O)[nH]1 [Formulation 8-OHdG, 8-OHdG]",P1 pre-dialysis plasma concentration ± SEM,0.34 ± 0.02 ng/mL
same,P2 post-dialysis plasma concentration ± SEM,0.21 ± 0.02 ng/mL
